Some entries share one result that the patent states for a list of compounds.
System: Ascaridia galli and Oesophagostomum dentatum
Assay: In vitro anthelmintic test on gut-dwelling larval stages, minimum effective concentration (MEC) by microscopic examination
Assay type: cell-based
Conditions: activity against one or both of the nematodes (A. galli L3; O. dentatum L3 and L4), 96-well plates, 20 larvae per well, versus DMSO-control

## C/C=C/C(=O)N1CCN(c2cc(C(F)(F)F)nc3ccc(C(F)(F)F)cc23)CC1 [Compound A-31]
  minimum effective concentration (MEC): ≤ 50 µM

## C/C=C/C(=O)N1CCN(c2c(C(=O)OCC)cnc3ccc(OC(F)(F)F)cc23)CC1 [Compound A-33]
  minimum effective concentration (MEC): ≤ 50 µM

## CC/C=C/C(=O)N1CCN(c2cc(C)nc3ccc(N(C)C)cc23)CC1 [Compound A-111]
  minimum effective concentration (MEC): ≤ 50 µM

## CC/C=C/C(=O)N1CCN(c2cc(OC)nc3ccccc23)CC1 [Compound A-113]
  minimum effective concentration (MEC): ≤ 50 µM

## CC/C=C/C(=O)N1CCN(c2cc(C)nc3ccc(F)cc23)CC1 [Compound A-116]
  minimum effective concentration (MEC): ≤ 50 µM

## CCC/C=C/C(=O)N1CCN(c2cc(C)nc3ccc(F)cc23)CC1 [Compound A-123]
  minimum effective concentration (MEC): ≤ 50 µM

## Cc1cc(N2CCN(C(=O)/C=C/C(C)C)CC2)c2cc(F)ccc2n1 [Compound A-130]
  minimum effective concentration (MEC): ≤ 50 µM

## CC/C=C/C(=O)N1CCN(c2c(C(=O)OCC)cnc3ccccc23)CC1 [Compound A-133]
  minimum effective concentration (MEC): ≤ 50 µM

## CC/C=C/C(=O)N1CCN(c2c(C(=O)OCC)c(C)nc3ccccc23)CC1 [Compound A-135]
  minimum effective concentration (MEC): ≤ 50 µM

## CCC/C=C/C(=O)N1CCN(c2c(C(=O)OCC)cnc3ccccc23)CC1 [Compound A-136]
  minimum effective concentration (MEC): ≤ 50 µM

## CCC/C=C/C(=O)N1CCN(c2c(C(=O)OCC)c(C)nc3ccccc23)CC1 [Compound A-138]
  minimum effective concentration (MEC): ≤ 50 µM

## CCOC(=O)c1cnc2ccccc2c1N1CCN(C(=O)/C=C/C(C)C)CC1 [Compound A-140]
  minimum effective concentration (MEC): ≤ 50 µM

## CC(C)/C=C/C(=O)N1CCN(c2ncnc3ccsc23)CC1 [Compound A-142]
  minimum effective concentration (MEC): ≤ 50 µM

## CCOC(=O)c1c(C)nc2ccccc2c1N1CCN(C(=O)/C=C/C(C)C)CC1 [Compound A-143]
  minimum effective concentration (MEC): ≤ 50 µM

## CC/C=C/C(=O)N1CCN(c2ccnc3ccsc23)CC1 [Compound A-145]
  minimum effective concentration (MEC): ≤ 50 µM

## CC/C=C/C(=O)N1CCN(c2ncnc3ccccc23)CC1 [Compound A-146]
  minimum effective concentration (MEC): ≤ 50 µM

## Cc1cc(N2CCN(C(=O)/C=C/C(=O)c3ccccc3)CC2)c2ccccc2n1 [Compound A-169]
  minimum effective concentration (MEC): ≤ 50 µM

## CNC(=O)/C=C/C(=O)N1CCN(c2ccnc3ccccc23)CC1 [Compound A-172]
  minimum effective concentration (MEC): ≤ 50 µM

## CNC(=O)/C=C/C(=O)N1CCN(c2cc(C)nc3ccccc23)CC1 [Compound A-173]
  minimum effective concentration (MEC): ≤ 50 µM

## CCC(=O)/C=C/C(=O)N1CCN(c2ccnc3ccccc23)CC1 [Compound A-175]
  minimum effective concentration (MEC): ≤ 50 µM

## Cc1cc(N2CCN(C(=O)/C=C/C(C)O)CC2)c2ccccc2n1 (stereo not shown) [Compound A-178, (E)-4-Hydroxy-1-[4-(2-methyl-4-quinolyl)piperazin-1-yl]pent-2-en-1-one]
  minimum effective concentration (MEC): ≤ 50 µM

## Cc1cc(N2CCN(C(=O)/C=C/C(C)F)CC2)c2ccccc2n1 (stereo not shown) [Compound A-179, (E)-4-fluoro-1-[4-(2-methyl-4-quinolyl)piperazin-1-yl]pent-2-en-1-one]
  minimum effective concentration (MEC): ≤ 50 µM

## CCOc1cc(N2CCN(C(=O)/C=C/C3CC3)CC2)c2ccccc2n1 [Compound A-328]
  minimum effective concentration (MEC): ≤ 50 µM

## COc1ccc2c(N3CCN(C(=O)/C=C/C4CC4C)CC3)nc(OC)nc2c1 (stereo not shown) [Compound A-353]
  minimum effective concentration (MEC): ≤ 50 µM

## COc1ccc2c(N3CCN(C(=O)/C=C/C(F)(F)F)CC3)nc(OC)nc2c1 [Compound A-354]
  minimum effective concentration (MEC): ≤ 50 µM

## O=C(/C=C/C1CC1)N1CCN(c2cc(Cl)nc3ccccc23)CC1 [Compound A-359]
  minimum effective concentration (MEC): ≤ 50 µM

## O=C(/C=C/C(F)(F)F)N1CCN(c2cc(Cl)nc3ccccc23)CC1 [Compound A-361]
  minimum effective concentration (MEC): ≤ 50 µM

## CC/C=C/C(=O)N1CCN(c2cc(Cl)nc3ccccc23)CC1 [Compound A-363]
  minimum effective concentration (MEC): ≤ 50 µM

## CCC(C)/C=C/C(=O)N1CCN(c2cc(OC)nc3ccsc23)CC1 (stereo not shown) [Compound A-365]
  minimum effective concentration (MEC): ≤ 50 µM

## COc1cc(N2CCN(C(=O)/C=C/C3CC3C)CC2)c2sccc2n1 (stereo not shown) [Compound A-367]
  minimum effective concentration (MEC): ≤ 50 µM

## COc1cc(N2CCN(C(=O)/C=C/C(F)(F)F)CC2)c2sccc2n1 [Compound A-368]
  minimum effective concentration (MEC): ≤ 50 µM

## CCC/C=C/C(=O)N1CCN(c2cc(OC)nc(OC)c2)CC1 [Compound A-429]
  minimum effective concentration (MEC): ≤ 50 µM

## CCC(C)/C=C/C(=O)N1CCN(c2cc(OC)nc(OC)c2)CC1 (stereo not shown) [Compound A-431]
  minimum effective concentration (MEC): ≤ 50 µM

## Cc1cc(N2CCN(C(=O)/C=C/C(C)C)CC2)c([N+](=O)[O-])c(C)n1 [Compound A-483]
  minimum effective concentration (MEC): ≤ 50 µM

## CCC/C=C/C(=O)N1CCN(c2nc(C)nc3sc4c(c23)CCCC4)CC1 [Compound A-506]
  minimum effective concentration (MEC): ≤ 50 µM

## Cc1nc(N2CCN(C(=O)/C=C/C(C)C)CC2)c2c3c(sc2n1)CCCC3 [Compound A-507]
  minimum effective concentration (MEC): ≤ 50 µM

## CCOc1cc(N2CCN(C(=O)/C=C/C(C)C)CC2)nc(C)n1 [Compound A-553]
  minimum effective concentration (MEC): ≤ 50 µM

## COc1cc(N2CCN(C(=O)/C=C/C3CC3)CC2)nc(C)n1 [Compound A-560]
  minimum effective concentration (MEC): ≤ 50 µM

## O=C(C=CCl)N1CCN(c2ccnc3ccccc23)CC1 [Compound B-7]
  minimum effective concentration (MEC): ≤ 50 µM

## Cc1cc(N2CCN(C(=O)C=CCl)CC2)c2ccccc2n1 [Compound B-8]
  minimum effective concentration (MEC): ≤ 50 µM

## Cc1cc(N2CCC(C(=O)/C=C/C(C)C)CC2)c2ccccc2n1 [Compound C-45, (E)-4-methyl-1-[1-(2-methyl-4-quinolyl)-4-piperidyl]pent-2-en-1-one]
  minimum effective concentration (MEC): ≤ 50 µM

## CCC/C=C/C(=O)N1CC(Nc2ccnc3ccccc23)C1 [Compound C-90]
  minimum effective concentration (MEC): ≤ 50 µM

## CC(C)/C=C/C(=O)N1CC(Nc2ccnc3ccccc23)C1 [Compound C-92]
  minimum effective concentration (MEC): ≤ 50 µM

From patent US8883791B2, “N-heteroaryl compounds with cyclic bridging unit for the treatment of parasitic diseases” (Intervet Inc., priority 2010, dated 2014)
